Some results were stated once for a whole list of compounds, not compound by compound.
System: hepatic disorder induced by D-galactosamine
Assay: Hepatic disorder suppressing effect of Compounds 1 to 5 given into stomach, D-galactosamine model; ALT and AST
Format: in vivo, Wistar rats
Conditions: 100 mg per kg into stomach in avocado oil, 4 hours before D-galactosamine 350 mg per kg into peritoneum; blood 22 hours later; FIG. 4

For `CCCCC/C=C\C/C=C\CCCCCCCC(=O)/C=C/CO` [Compound 2, (2E, 12Z, 15Z)-1-hydroxyhenicosa-2,12,15-trien-4-one], which “hepatic disorder suppressing effect (ALT and AST activity)” value (“hepatic disorder suppressing effect” below) is on record?
The value was “obvious hepatic disorder suppressing effect”.

`CCCCC/C=C\C/C=C\CCCCC/C=C/C(=O)/C=C/CO` [Compound 1, (2E, 5E, 12Z, 15Z)-1-hydroxyhenicosa-2,5, 12, 15-tetraen-4-one] was tested. Which “hepatic disorder suppressing effect” value did it give?
The value was “obvious hepatic disorder suppressing effect”.

With `CCCCC/C=C\C/C=C\CCCCCCCC(=O)CC(O)COC(C)=O` (stereo not drawn) [Compound 5, persin] as the molecule, how does the “hepatic disorder suppressing effect” value read?
The value was “obvious hepatic disorder suppressing effect”.
